A negative result means that nothing was seen under these conditions. For part of these data: Construct, isoform or probe ends are uncertain for at least one entry. For part of these data: Protein sequences can lack the tags named with them. For part of these data: Weaker means in comparison with the reference protein, sequence or condition of that experiment.

Sequences of proteins named here, by UniProt entry; tags and fusion partners are left off. A change or cut given only in a name is not applied to a line headed by its entry.
UniProt P22629: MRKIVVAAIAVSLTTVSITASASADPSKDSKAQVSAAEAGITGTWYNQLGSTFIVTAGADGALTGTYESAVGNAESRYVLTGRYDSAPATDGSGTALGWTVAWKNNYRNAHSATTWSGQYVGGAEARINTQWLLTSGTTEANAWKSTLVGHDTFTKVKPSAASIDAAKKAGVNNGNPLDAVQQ

In data set [1] the target is streptavidin (UniProt P22629). The experiment in a line: flow cytometry (Ni-NTA beads). The following applies: 5 mM Mg2+, 25 mM Tris-HCl pH 8.0, 100 mM NaCl, 5 mM MgCl2, room temperature, 1 h, 10 ug His-tagged protein captured on Ni-NTA agarose beads, recombinant protein, protein details: His, label: 5'-FAM, synthetic backbone, letters put together from the description.

For data set [2], the target named is T1, YkuD transpeptidase (Bacillus subtilis) (UniProt O34816).
T1 sequence (looked up, limits assumed): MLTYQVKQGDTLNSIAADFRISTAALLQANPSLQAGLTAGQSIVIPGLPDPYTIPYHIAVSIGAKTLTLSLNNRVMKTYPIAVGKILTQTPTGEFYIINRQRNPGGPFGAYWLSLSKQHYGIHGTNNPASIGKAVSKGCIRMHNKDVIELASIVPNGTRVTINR
Briefly: flow cytometry (Ni-NTA beads). The following applies: 5 mM Mg2+, 25 mM Tris-HCl pH 8.0, 100 mM NaCl, 5 mM MgCl2, room temperature, 1 h, 10 ug His-tagged protein captured on Ni-NTA agarose beads, recombinant protein, protein details: His, label: 5'-FAM, synthetic backbone, letters put together from the description. (In general: Flow cytometry measures light scatter and fluorescence of single cells or particles in a stream.)

The mark [3] stands for this setting: dUCOTc replaces every T after the 20-nt forward primer.
Setting [4] is: dUCOTc (COT-carboxylate-modified dU) replaces every T after the 20-nt forward primer.

For “CACTCACGTCAGTGACATGCCAAGCGAAGTTGTGCGCCCGCGTCGTGGTCGTCAGAAATTTCGCACCAC [N5 COTc aptamer]”, the binding result in data set [1] (setting [3]) and in data set [2] (setting [3]) was “no binding” each time.

As to “CACTCACGTCAGTGACATGCGCATTACGCAGCGCTGCGCAGCGAGTACCGGTCAGAAATTTCGCACCAC [N0 COTc aptamer]”, the binding result in data set [1] (setting [4]) and in data set [2] (setting [4]) was “no binding” each time.

For “CACTCACGTCAGTGACATGCAGGTCCTCTCGCCCCCAGTGACTTGCGTGGTCAGAAATTTCGCACCAC [N15 COTc aptamer]”, the binding result is “no binding” in data set [1] (setting [3]) and “binds more weakly” in data set [2] (slightly above control, likely non-specific, dUCOTc replaces every T after the 20-nt forward primer).
